PubChem BioAssay AID743454 | Peter MacCallum Cancer Centre – 2014
The whole screen tested about 18,000 reagents; below is an unselected part. 450 of them (2.5%) were called active. 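Single biological run; no consistent viability z cut-off exists, so the class columns, not z-scores, define the calls.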 Unmarked entries are inactive.

Assay: 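Knock-downs lowering viability or raising caspase 3/7 activity in vorinostat-treated resistant cells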 (primary screen)
System: human HCT116-VR colon cancer cells, selected for vorinostat resistance
Reagents: siRNA pool against human genes, 40 nM siRNA pool
Time to read-out: vorinostat for 24 h, read-out about 72 h after transfection
Conditions: vorinostat at 2.5 µM final
Measured: 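Two measures, CellTiter-Fluor viability and luminescent caspase 3/7 activity, each as fold change against same-plate mock wells, mean of duplicates, then screen-wide robust z-score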
Scale: viability robust z-score: higher = more viable cells than screen typical; caspase robust z-score: higher = more caspase 3/7 activity than screen typical
Rule for the call: 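Hits are knock-downs in viability class RV1/RV2 or caspase class CA1/CA2, excluding ones that killed cells in the no-drug cell-count arm; hits then retested with single siRNAs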

After knock-down of DPM2, the screen gave viability hit class no change; caspase hit class no change; viability robust z-score -0.36; caspase robust z-score 0.41.
Against HCAR2, the values are viability hit class no change; caspase hit class no change; viability robust z-score -1.89; caspase robust z-score 3.29.
With knock-down of SEC14L2 the results were viability hit class no change; caspase hit class no change; viability robust z-score 0.32; caspase robust z-score -0.46.
Against TACR1, the values are viability hit class no change; caspase hit class no change; viability robust z-score -1.37; caspase robust z-score -0.23.
With knock-down of CCDC184, the record shows viability hit class no change; caspase hit class no change; viability robust z-score 0.84; caspase robust z-score -0.44.
With knock-down of CCDC66, the screen gave viability hit class no change; caspase hit class no change; viability robust z-score 0.43; caspase robust z-score -0.15.
NEFL scored viability hit class no change; caspase hit class no change; viability robust z-score 0.86; caspase robust z-score 2.82.
After knock-down of PLSCR5 the results were viability hit class no change; caspase hit class no change; viability robust z-score 0.88; caspase robust z-score -0.31.
With knock-down of MSL3 the results were viability hit class no change; caspase hit class no change; viability robust z-score 0.4; caspase robust z-score 2.08.
Knock-down of OR11G2 came out at: viability hit class no change; caspase hit class no change; viability robust z-score 0.92; caspase robust z-score 0.52.
With knock-down of SOX12, the screen gave viability hit class no change; caspase hit class no change; viability robust z-score -0.02; caspase robust z-score 1.5.
After knock-down of NEFM the results were viability hit class no change; caspase hit class no change; viability robust z-score 0.08; caspase robust z-score -0.68.
After knock-down of CLEC1A the results were viability hit class no change; caspase hit class no change; viability robust z-score 1.09; caspase robust z-score 0.09.
Against HBM the deposit lists viability hit class no change; caspase hit class no change; viability robust z-score -1.21; caspase robust z-score 1.44.
